In patent publication US20190216949A1:
No constants are given. Whether binding was seen depends on the method and setting. Some entries that bind do so weakly or less than the wild type.

Chains of the proteins cited; added tags and fusions are not shown. Residues count along the entry.
UniProt Q05320, residues 33-650: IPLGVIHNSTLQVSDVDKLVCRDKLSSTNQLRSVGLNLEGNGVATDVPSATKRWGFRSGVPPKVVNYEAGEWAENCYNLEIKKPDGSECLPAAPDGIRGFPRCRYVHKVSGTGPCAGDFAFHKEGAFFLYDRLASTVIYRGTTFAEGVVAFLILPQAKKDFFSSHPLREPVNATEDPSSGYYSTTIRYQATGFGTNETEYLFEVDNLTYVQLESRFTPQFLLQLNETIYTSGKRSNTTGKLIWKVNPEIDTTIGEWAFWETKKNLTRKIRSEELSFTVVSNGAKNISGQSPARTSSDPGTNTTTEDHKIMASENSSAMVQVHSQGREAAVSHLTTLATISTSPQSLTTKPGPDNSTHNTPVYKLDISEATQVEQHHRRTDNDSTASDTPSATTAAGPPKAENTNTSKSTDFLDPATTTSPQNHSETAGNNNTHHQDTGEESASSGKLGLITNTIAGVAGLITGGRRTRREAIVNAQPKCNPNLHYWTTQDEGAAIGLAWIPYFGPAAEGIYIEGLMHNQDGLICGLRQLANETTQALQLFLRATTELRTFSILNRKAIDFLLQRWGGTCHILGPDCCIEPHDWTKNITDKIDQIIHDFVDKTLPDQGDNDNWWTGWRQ

Legend:
[1] = molecular target: Ebola virus glycoprotein (EBOV GP) (Ebola virus (EBOV)) (UniProt Q05320); test: EBOV GP ELISA of serum at 1:100 dilution after IM AAV-2G4
[2] = molecular target: Ebola virus glycoprotein (EBOV GP) (Ebola virus (EBOV)) (UniProt Q05320); test: EBOV GP ELISA of serum

B1: monoclonal antibody 2G4 (murine IgG2a, expressed in mice from AAV6.2FF-2G4) (antibody, V domains shown)
VH: GGGLMQPGGSMKLSCVASGFTFSNYWMNWVRQSPEKGLEWVAEIRLKSNNYATHYAESVKGRFTISRDDSKRSVYLQMNTLRAEDTGIYYCTRGNGNYRAMDYWGQGTSVTVSS
VL: ASLSVSVGETVSITCRASENIYSSLAWYQQKQGKSPQLLVYSATILADGVPSRFSGSGSGTQYSLKINSLQSEDFGTYYCQHFWGTPYTFGGGTKLEIKR
binding [1]: binds | binding [2]: binds
